Test results as given in patent US12495798B2, “Nicotinamide compound and herbicidal composition comprising compound” (KOREA RESEARCH INSTITUTE OF CHEMICAL TECHNOLOGY, priority 2019, dated 2025).

Tested on: fall panicum
Experiment: Herbicidal activity test against upland field weeds (foliar treatment test)
Assay type: in vivo
Set-up: key: B; Stunting; C; Desiccation; I; Chlorosis; N; Bleaching
Details: 50 g ai/ha, symptom letters
Protocol: (§1) Experimental Example 1: Herbicidal Activity Test Against Upland Field Weeds (Foliar Treatment Test) Foliar treatment was performed as follows: After filling a square plastic pot having a surface area of 350 cm^2 with horticultural soil, seeds (10˜15 grains) or rootstocks (2 pieces) of 5 kinds of grassy weeds of sorghum, barnyard grass, quack grass, crabgrass, fall panicum, and 5 kinds of broadleaf weeds of black nightshade, indian jointvetch, velvetleaf, cocklebur, bindweed, which had been stored in a low temperature (6° C.), were sown. After growing for a certain period in greenhouse conditions (average temperature 30±5° C., light/dark=14/10 hours), test compound solutions were made by diluting with a preparation solution (including 50% acetone, 0.1% Tween-20) so that the final treatment amount of the test compounds was 50 or 75 g a.i./ha. The prepared test compound solution was used for treating foliage by hand-spraying 14 mL per pot in a fume hood. After the treatment, it was managed under the same greenhouse conditions as above, and after 14 days (after 21 days if necessary), the external symptoms and efficacy were investigated according to the scale of 0 (no control) to 100 (complete control). The results of Table 7 were obtained by evaluating weed control value to the untreated control by conducting visual assessment.

Structure (SMILES) | External symptoms, Fall panicum
C=Cc1nc(COCc2nc(C(F)(F)F)ccc2C(=O)Nc2nnnn2C)nn1C [Compound No. 2-127, N-(1-methyl-1H-tetrazol-5-yl)-2-(((1-methyl-5-vinyl-1H-1,2,4-triazol-3-yl)methoxy)methyl)-6-(trifluoromethyl)nicotinamide] | B

Tested on: sorghum
Experiment: as above
Assay type: in vivo
Set-up: key: B; Stunting; C; Desiccation; I; Chlorosis; N; Bleaching
Details: 50 g ai/ha, symptom letters
Protocol: as §1

Structure (SMILES) | External symptoms, Sorghum
Cn1nnc(COCc2nc(C(F)(F)Cl)ccc2C(=O)Nc2nnnn2C)n1 [Compound No. 2-78, 6-(chlorodifluoromethyl)-N-(1-methyl-1H-tetrazol-5-yl)-2-(((2-methyl-2H-tetrazol-5-yl)methoxy)methyl)nicotinamide] | N

Tested on: bindweed
Experiment: as above
Assay type: in vivo
Set-up: key: B; Stunting; C; Desiccation; I; Chlorosis; N; Bleaching
Details: 50 g ai/ha, symptom letters
Protocol: as §1

Structure (SMILES) | External symptoms, Bindweed
Cn1nnnc1NC(=O)c1ccc(C(F)(F)F)nc1COCc1nnnn1C(F)F [Compound No. 1-85, 2-(((1-(difluoromethyl)-1H-tetrazol-5-yl)methoxy)methyl)-N-(1-methyl-1H-tetrazol-5-yl)-6-(trifluoromethyl)nicotinamide] | N
Cn1cnc(COc2nc(C(F)(F)F)ccc2C(=O)Nc2nnnn2C)n1 [Compound No. 2-43, 2-((1-methyl-1H-1,2,4-triazol-3-yl)methoxy)-N-(1-methyl-1H-tetrazol-5-yl)-6-(trifluoromethyl)nicotinamide] | I
CC(=O)N(C(=O)c1ccc(C(F)(F)F)nc1COCc1nnn(C)n1)c1nnnn1C [Compound No. 2-67, N-acetyl-N-(1-methyl-1H-tetrazol-5-yl)-2-(((2-methyl-2H-tetrazol-5-yl)methoxy)methyl)-6-(trifluoromethyl)nicotinamide] | N
Cn1nnc(COCc2nc(C(F)(F)F)ccc2C(=O)N(c2nnnn2C)S(C)(=O)=O)n1 [Compound No. 2-69, N-(1-methyl-1H-tetrazol-5-yl)-2-(((2-methyl-2H-tetrazol-5-yl)methoxy)methyl)-N-(methylsulfonyl)-6-(trifluoromethyl)nicotinamide] | N
CON(Cc1nnn(C)n1)Cc1nc(C(F)(F)Cl)ccc1C(=O)Nc1nnnn1C [Compound No. 2-79, 6-(chlorodifluoromethyl)-2-((methoxy((2-methyl-2H-tetrazol-5-yl)methyl)amino)methyl)-N-(1-methyl-1H-tetrazol-5-yl)nicotinamide] | N
CCN(Cc1nnn(C)n1)Cc1nc(C(F)(F)F)ccc1C(=O)Nc1nnnn1C [Compound No. 2-94, 2-((ethyl((2-methyl-2H-tetrazol-5-yl)methyl)amino)methyl)-N-(1-methyl-1H-tetrazol-5-yl)-6-(trifluoromethyl)nicotinamide] | N
Cn1nnc(COCc2nc(C(F)(F)F)ccc2C(=S)Nc2nnnn2C)n1 [Compound No. 2-106, N-(1-methyl-1H-tetrazol-5-yl)-2-(((2-methyl-2H-tetrazol-5-yl)methoxy)methyl)-6-(trifluoromethyl)pyridin-3-carbothioamide] | N
CCCn1nnnc1NC(=O)c1ccc(C(F)(F)F)nc1COCc1nc(C(F)(F)F)n(C)n1 [Compound No. 2-120, 2-(((1-methyl-5-(trifluoromethyl)-1H-1,2,4-triazol-3-yl)methoxy)methyl)-N-(1-propyl-1H-tetrazol-5-yl)-6-(trifluoromethyl)nicotinamide] | N
C=CCn1nnnc1NC(=O)c1ccc(C(F)(F)F)nc1COCc1nc(C(F)(F)F)n(C)n1 [Compound No. 2-121, N-(1-allyl-1H-tetrazol-5-yl)-2-(((1-methyl-5-(trifluoromethyl)-1H-1,2,4-triazol-3-yl)methoxy)methyl)-6-(trifluoromethyl)nicotinamide] | N
C=Cc1nc(COCc2nc(C(F)(F)F)ccc2C(=O)Nc2nnnn2C)nn1C [Compound No. 2-127, N-(1-methyl-1H-tetrazol-5-yl)-2-(((1-methyl-5-vinyl-1H-1,2,4-triazol-3-yl)methoxy)methyl)-6-(trifluoromethyl)nicotinamide] | N
C=C(C)c1nc(COCc2nc(C(F)(F)F)ccc2C(=O)Nc2nnnn2C)nn1C [Compound No. 2-128, N-(1-methyl-1H-tetrazol-5-yl)-2-(((1-methyl-5-(prop-1-en-2-yl)-1H-1,2,4-triazol-3-yl)methoxy)methyl)-6-(trifluoromethyl)nicotinamide] | N
COc1nc(COCc2nc(C(F)(F)F)ccc2C(=O)Nc2nnnn2C)nn1C [Compound No. 2-129, 2-(((5-methoxy-1-methyl-1H-1,2,4-triazol-3-yl)methoxy)methyl)-N-(1-methyl-1H-tetrazol-5-yl)-6-(trifluoromethyl)nicotinamide] | N
Cn1nc(COCc2nc(C(F)(F)F)ccc2C(=O)Nc2nnnn2C)nc1Br [Compound No. 2-136, 2-(((5-bromo-1-methyl-1H-1,2,4-triazol-3-yl)methoxy)methyl)-N-(1-methyl-1H-tetrazol-5-yl)-6-(trifluoromethyl)nicotinamide] | N

Tested on: quack grass
Experiment: as above
Assay type: in vivo
Set-up: key: B; Stunting; C; Desiccation; I; Chlorosis; N; Bleaching
Details: 50 g ai/ha, symptom letters
Protocol: as §1

Structure (SMILES) | External symptoms, quack grass
CN(Cc1nnnn1C)c1nc(C(F)(F)F)ccc1C(=O)Nc1nnnn1C [Compound No. 1-27, 2-(methyl((1-methyl-1H-tetrazol-5-yl)methyl)amino)-N-(1-methyl-1H-tetrazol-5-yl)-6-(trifluoromethyl)nicotinamide] | C
Cn1nnnc1COc1nc(C(F)(F)F)ccc1C(=S)Nc1nnnn1C [Compound No. 1-43, N-(1-methyl-1H-tetrazol-5-yl)-2-((1-methyl-1H-tetrazol-5-yl)methoxy)-6-(trifluoromethyl)pyridin-3-carbothioamide] | N
Cn1ncnc1COc1nc(C(F)(F)F)ccc1C(=O)Nc1nnnn1C [Compound No. 1-45, 2-((1-methyl-1H-1,2,4-triazol-5-yl)methoxy)-N-(1-methyl-1H-tetrazol-5-yl)-6-(trifluoromethyl)nicotinamide] | N
Cn1nnc(C[S+]([O-])Cc2nc(C(F)(F)F)ccc2C(=O)Nc2nnnn2C)n1 (centres unmarked) [Compound No. 2-104, N-(1-methyl-1H-tetrazol-5-yl)-2-((((2-methyl-2H-tetrazol-5-yl)methyl)sulfinyl)methyl)-6-(trifluoromethyl)nicotinamide] | N

Tested on: crabgrass
Experiment: as above
Assay type: in vivo
Set-up: key: B; Stunting; C; Desiccation; I; Chlorosis; N; Bleaching
Details: 50 g ai/ha, symptom letters
Protocol: as §1

Structure (SMILES) | External symptoms, Crabgrass
CN(Cc1nnn(C)n1)Cc1nc(C(F)(F)F)ccc1C(=O)Nc1nnnn1C [Compound No. 2-93, 2-((methyl((2-methyl-2H-tetrazol-5-yl)methyl)amino)methyl)-N-(1-methyl-1H-tetrazol-5-yl)-6-(trifluoromethyl)nicotinamide] | N
